PubChem BioAssay AID504793 | Drosophila RNAi Screening Center, 2011

- Test: 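Genes required for cells to halt at G2/M after double-strand DNA breaks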 (primary screen)
- System: Drosophila S2R+ cells
- Reagents: long dsRNA against Drosophila genes, about 0.25 µg dsRNA per well
- Duration: 4 days of dsRNA, then 4 hours of drug before read-out
- Challenge: doxorubicin 0.5 µM for 4 hours to cause double-strand breaks, in cells also given a low, harmless dose of dsRNA against nbs to sensitise the assay
- Measurement: 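Mitotic index as the number of phospho-histone H3-positive cells in each well following doxorubicin, given as raw counts without normalisation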
- Reading the numbers: mitotic cells: higher = more cells in mitosis, weaker G2 arrest
- Hit rule: 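a call needs confirmation in secondary tests, with other dsRNAs and a check of mitotic timing without damage, not just a high primary count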
- Calls: active = confirmed in follow-up tests; inactive = not confirmed
The deposit covers about 23,000 reagents; this is an unselected part of those that have a named target and a result. Of all reagents, 62 (0.27%) are marked active. 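Calls come from follow-up tests whose scores are not deposited, so confirmed genes may have low counts here; counts are not normalised per plate.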 Raw values are not corrected between plates. Names joined by + are all predicted targets of the reagent.

pan [DRSC17176] → mitotic cells, replicate 1 = 4; call = inactive
pan [DRSC22582] → mitotic cells, replicate 1 = 5; call = inactive
pan [DRSC29251] → mitotic cells, replicate 1 = 27; call = inactive
Stam [DRSC03444] → mitotic cells, replicate 1 = 2; call = inactive
Stam [DRSC25607] → mitotic cells, replicate 1 = 5; call = inactive
yrt [DRSC16559] → mitotic cells, replicate 1 = 24; call = inactive
CG10680 [DRSC02093] → mitotic cells, replicate 1 = 9; call = inactive
CG7800 [DRSC16315] → mitotic cells, replicate 1 = 4; call = inactive
CG7800 [DRSC27419] → mitotic cells, replicate 1 = 6; call = inactive
CG15226 (retired record) [DRSC03829] → mitotic cells, replicate 1 = 8; call = inactive
CG15226 (retired record) [DRSC04233] → mitotic cells, replicate 1 = 4; call = inactive
CG6435 [DRSC06987] → mitotic cells, replicate 1 = 7; call = inactive
CG1620 [DRSC06603] → mitotic cells, replicate 1 = 3; call = inactive
CG1620 [DRSC29378] → mitotic cells, replicate 1 = 12; call = inactive
Jon99Cii [DRSC16858] → mitotic cells, replicate 1 = 12; call = inactive
Jon99Cii [DRSC22574] → mitotic cells, replicate 1 = 9; call = inactive
CG32706 + CG6999 [DRSC18412] → mitotic cells, replicate 1 = 14; call = inactive
CG32706 + CG6999 [DRSC23954] → mitotic cells, replicate 1 = 8; call = inactive
Cpr78Ca [DRSC11651] → mitotic cells, replicate 1 = 5; call = inactive
CG15719 [DRSC19685] → mitotic cells, replicate 1 = 8; call = inactive
Ptp69D [DRSC11258] → mitotic cells, replicate 1 = 6; call = inactive
PpD6 [DRSC00774] → mitotic cells, replicate 1 = 2; call = inactive
PpD6 [DRSC23331] → mitotic cells, replicate 1 = 10; call = inactive
lilli [DRSC00708] → mitotic cells, replicate 1 = 2; mitotic cells, replicate 2 = 9; call = inactive
CG14297 [DRSC14776] → mitotic cells, replicate 1 = 7; call = inactive
robl37BC [DRSC02472] → mitotic cells, replicate 1 = 3; call = inactive
gcl [DRSC07623] → mitotic cells, replicate 1 = 2; call = inactive
gcl [DRSC27995] → mitotic cells, replicate 1 = 8; call = inactive
Anp [DRSC14112] → mitotic cells, replicate 1 = 17; call = inactive
RpS3A [DRSC17168] → mitotic cells, replicate 1 = 11; call = inactive
ND-15 [DRSC00311] → mitotic cells, replicate 1 = 6; call = inactive
RfC4 [DRSC08691] → mitotic cells, replicate 1 = 3; call = inactive
RfC4 [DRSC29522] → mitotic cells, replicate 1 = 4; call = inactive
Samuel [DRSC21731] → mitotic cells, replicate 1 = 10; call = inactive
Samuel [DRSC23114] → mitotic cells, replicate 1 = 7; call = inactive
Fst [DRSC16491] → mitotic cells, replicate 1 = 3; call = inactive
Fst [DRSC24483] → mitotic cells, replicate 1 = 4; call = inactive
fy [DRSC03533] → mitotic cells, replicate 1 = 6; call = inactive
fy [DRSC25931] → mitotic cells, replicate 1 = 2; call = inactive
Best2 [DRSC09712] → mitotic cells, replicate 1 = 4; call = inactive
Apoltp [DRSC02508] → mitotic cells, replicate 1 = 4; call = inactive
CG15611 [DRSC06563] → mitotic cells, replicate 1 = 4; call = inactive
CG15611 [DRSC06564] → mitotic cells, replicate 1 = 3; call = inactive
